Some of these results come from one statement about several compounds together. At least one compound was matched to its structure with a doubt left.
Tested on: TxtB
Test: TxtB substrate scope in TxtA/TxtB reactions
Format: biochemical, S. scabies 87.22
Conditions: Example 2, reaction without TB14
Experimental: Using the above strategy, it was determined that TxtB accepted only I-Trp among all 20 natural amino acids in the reaction (FIG. 2B, Table 1). When incubating with 15 I-Trp analogs with various substituents at α-position or C4, C5, C6 and C7 of I-Trp indole (Table 1), TxtB was able to use 4-F, 4-Me, 5-F, and 6-F-tryptophan as substrates in the DKP synthesis (Table 1). […] Indeed, the Micklefield group recently produced several thaxtomin analogs with C4-H, F, Cl, Br, or Me when expressing txtA/B in S. albus. The advanced understanding of substrate scopes of TxtA/B led to enzymatic creation of a library of 30 DKPs with 5 I-Trp analogs and 6 I-Phe analogs (FIG. 3C). The production of all DKPs were confirmed in HPLC analysis and verified in high resolution LC-MS analysis (Table 2).
TxtA/B reaction: 100 mM Tris-Cl (PH=8.0), 0.5 mM Nitro-L-tryptophan or L-tryptophan, 0.55 mM L-Phenylalanine, 3.2 μM txtA, 14.5 μM txtB, 2.5 mM ATP and 2 mM SAM in 100 μL reaction. […]
To probe the basis of chemical diversity of Thx DKP scaffold, next characterized was the substrate scopes of TxtA and TxtB. […] The substrate preference of TxtB was then assessed. […]
The TxtA/B reaction solutions (100 μl) typically contained 100 mM Tris-Cl, pH 9.0, 0.5 mM amino acid substrates, 10 mM MgCl2, 2.5 mM ATP and 2 mM SAM. […] The reactions were run for 30 h and the products were analyzed and quantitated as described above.

N[C@@H](Cc1c[nH]c2ccc(F)cc12)C(=O)O [5F-Tryptophan, 5F-L-tryptophan]
TxtB activity, times more active than L-Trp: over 2 times
